Measurements reported in publication PMC9756341 (Journal of the American Chemical Society, 2022).

assay: general procedure: Fmoc solid-phase peptide synthesis; rink amide resin; conditions: whole synthesis, scale 0.03 mmol

Substance | isolated mass
Ac-DPhe-Ser(Z)-Dht-Arg-ACC | 7 mg
Ac-KHLF-{ACC} | 7.5 mg
Ac-T(Cbz)A[Phg]R-{ACC} | 3.9 mg

assay: general procedure: Fmoc solid-phase peptide synthesis; 2-chlorotrityl chloride resin; conditions: whole synthesis, scale 0.1 mmol

Substance | isolated mass
Yn-DPhe-Ser(Z)-Dht-DArg-DPP | 4 mg
Yn-Thr(Z)-Cha-His(Z)-Phg(4-guan)-DPP | 4.6 mg
Yn-Thr(Z)-Ala-Tyr(Z)-Phg(4-guan)-DPP | 1.8 mg
Yn-Thr(Z)-Ala-Dab(Z)-Phg(4-guan)-DPP | 2.0 mg
Yn-DPhe-Ser(Z)-Dht-Arg-DPP | 5 mg
Yn-Thr(Z)-Ala-Dht-Phg(4-guan)-DPP | 2.2 mg
Biotin-Ahx-DPhe-Ser(Z)-Dht-Arg-DPP | 5.3 mg
Biotin-Ahx-DhPhe-Cha-Dht-Phg(4-guan)-DPP | 1.9 mg
Biotin-Ahx-DPhe-Dlys-Dht-Phg(4-guan)-DPP | 3.4 mg
Biotin-Ahx-DPhe-Cha-Dht-Arg-DPP | 5.7 mg
Yn-Asp(Chx)-Cha-His(Z)-Phg(4-guan)-DPP | 1.2 mg
Biotin-Ahx-DPhe-Lys-Dht-Phg(4-guan)-DPP | 8.7 mg
Yn-Thr(Z)-Chg-His(Z)-Phg(4-guan)-DPP | 1.1 mg
Biotin-Ahx-DPhe-Cha-Ser(Ac)-Phg(4-guan)-DPP | 5.1 mg
Biotin-Ahx-Thr(Z)-Ala-Dht-Phg(4-guan)-DPP | 6 mg
Yn-Thr(Z)-Ala-Ser(Z)-Phg(4-guan)-DPP | 1.5 mg
Biotin-Ahx-DPhe-Cha-Dht-Phg(4-guan)-DPP | 4.3 mg
Biotin-Ahx-DPhe-Ser(Z)-Dht-DArg-DPP | 6.7 mg
Yn-Thr(Z)-Ala-Phg-Phg(4-guan)-DPP | 1.5 mg
Biotin-Ahx-Thr(Z)-Cha-Dht-Phg(4-guan)-DPP | 3.2 mg

[ ]: non-standard residue; d: D form. The star is where a group is joined. ACC = NC(=O)Cc1cc(=O)oc2cc(N*)ccc12; Phg = N[C@H](C(=O)O)c1ccccc1; Cbz = O=C(OCc1ccccc1)*
